The values that follow are results of earlier work, collected in patent US10435371B2, “Multifunctional aminoquinoline therapeutic agent” (LOHOCLA RESEARCH CORPORATION, priority 2014, dated 2019).

The data set concerns the target BDZ site, GABA-A Receptor. To be noted: read-out: Reference Ki, GABAA/BZP (rat brain); PDSP historical reference value, [^3H]Flunitrazepam; cited from earlier work.

Each structure is given as a SMILES string.

Regarding `CN1C(=O)CN=C(c2ccccc2)c2cc(Cl)ccc21` [Diazepam], the Ki is 1.5 ± 0.08 nM.
